This is one part of the list. The main result of the screen is listed elsewhere. These columns were measured beside it and carry no call. Compounds called inactive in the main read-out are mostly missing here. The note in brackets gives the kind of curve behind each potency; many fits are weak.
Assay: qHTS Assay to Find Inhibitors of Chronic Active B-Cell Receptor Signaling
Details: ABC-DLBCL IkBa-CBG/CBR reporter, luminescence ratio (green luciferase fused to IkBa over red control in TMD8 lymphoma cells), 4 h
Outline: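 Concentration-response series (up to 46 uM) were applied to TMD8 dual-reporter cells for 4 h at 37C with doxycycline. Green/red ratio, after filter-overlap correction, defined %Activity; red signal alone was normalised to basal cells and zero luminescence.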

[1] = measured here: CBR red luminescence, cell number
[2] = measured here: IkBa-CBG green luminescence

SMILES	AC50 [1]	AC50 [2]
Cc1cc[n+]2c3c(cccc13)CCC2	0.206 µM [falling, partial curve, poor fit]	
O=C(O)/C(=C\c1ccc(-c2ccc(F)cc2)o1)c1ccccc1	35.5 µM [falling, single point]	
O=C(NC(=O)N1CCN(c2ccccc2F)CC1)c1ccccc1	1.41 µM [rising, full curve, poor fit]	
COc1ccccc1NC(=O)CSc1nnnn1-c1ccccc1F	12.6 µM [falling, single point]	
O=C(O)CCSc1ccc2ccccc2n1	20 µM [falling, partial curve, poor fit]	
O=C(Nc1nnc(SCc2ccccc2Cl)s1)C1COc2ccccc2O1 (centres undefined)	7.31 µM [rising, partial curve]	
CCN(CC(=O)NCc1ccc(Cl)cc1)S(=O)(=O)c1ccc(F)cc1	0.562 µM [rising, full curve, poor fit]	
C[N+]1=C(/C=C/Nc2ccccc2Cl)C(C)(C)c2ccccc21	11.6 µM [falling, single point]	
CN(C)c1ccc(NC(=O)C(=O)C2C(=O)Nc3ccccc32)cc1 (centres undefined)	3.16 µM [falling, single point]	
CC[n+]1c(/C=C/N(C)c2ccccc2)oc2ccc(Cl)cc21	29.1 µM [falling, single point]	
Cc1ccccc1NC(=O)CSc1nnc(C)c2ccccc12	35.5 µM [falling, single point]	
CC(C)c1ccc(NC(=O)Cc2c(C(=O)O)n(C)c3ccccc23)cc1	2.24 µM [rising, full curve, poor fit]	
COc1ccccc1NC(=O)CSc1nnc(-c2ccco2)n1N	12.6 µM [falling, partial curve]	
COC(C[C@@H]1O[C@@H]1C(=O)COCc1ccccc1)OC	35.5 µM [rising, single point]	
CCN(c1cccc(C)c1)S(=O)(=O)c1cn(CC(=O)OC)c2ccc([N+](=O)[O-])cc12	3.16 µM [falling, partial curve, poor fit]	
O=C1OCCN1c1c(-c2ccccc2)c(-c2cccs2)nc2c(-c3ccccc3)cccc12	0.631 µM [falling, partial curve, poor fit]	
CCOC(=O)Cc1csc(NC(=O)c2ccc(S(=O)(=O)N(CCOC)CCOC)cc2)n1	15.8 µM [falling, single point]	
COc1ccc(CC(NC(C)=O)C(=O)NC2CCN(C(=O)Nc3ccccc3Cl)CC2)cc1OC (centres undefined)	0.146 µM [rising, full curve, poor fit]	
O=C(N/N=C1\CCS(=O)(=O)c2ccc(F)cc21)c1ccc(O)cc1	6.31 µM [falling, partial curve, poor fit]	
O=C(COC(=O)c1cc(Br)ccc1O)NNC(=O)c1cccs1	25.9 µM [rising, partial curve, poor fit]	23.1 µM [falling, single point]
Cn1cc(C(=O)c2ccc(Cl)cc2Cl)cc1C(=O)N/N=C(\N)COc1ccc(Cl)cc1	35.5 µM [falling, single point]	

SMILES	AC50 [1]	AC50 [2]
Cc1ccc(C2N=C(N)Nc3nc(=O)c4ccccc4n32)cc1 (centres undefined)	15.8 µM [falling, partial curve, poor fit]	
CN1CCC(=O)N([C@H](CSc2ccccc2)c2ccccc2)CC1	35.5 µM [falling, partial curve, poor fit]	
CC(=O)c1c(C)nc(-c2ccc(Cl)cc2)nc1N	3.55 µM [rising, partial curve, poor fit]	
Cc1cc(NS(=O)(=O)c2ccc(NC(=O)COc3ccccc3C(C)(C)C)cc2)no1	1.58 µM [falling, full curve, poor fit]	
O=C(CSc1nnc(SCc2cccc3ccccc23)s1)N/N=C/C=C/c1ccccc1[N+](=O)[O-]	14.6 µM [falling, partial curve, poor fit]	
O=C(NCC(=O)N1CCN(c2ccc(C(F)(F)F)cn2)CC1)c1ccc(Br)o1	29.1 µM [falling, partial curve, poor fit]	
Nc1nnc(SCCN2C(=O)c3ccccc3S2(=O)=O)s1	11.6 µM [rising, partial curve, poor fit]	
O=C(N/N=C/C1C(c2ccccc2)C1(Cl)Cl)c1cccc(Br)c1 (centres undefined)	15.8 µM [falling, partial curve, poor fit]	
COCCNC(=O)c1cc2sccc2n1C	31.6 µM [rising, single point]	
O=C(/C=C/c1ccccc1Cl)NC1CCCCC1	4.47 µM [falling, full curve]	
COc1ccc(C(=O)Nc2ccc([N+](=O)[O-])cn2)c(OC)c1	0.366 µM [rising, full curve]	
c1ccc2c(CN3CCSCC3)cccc2c1	17.8 µM [rising, single point]	
O=C1/C(=C\c2ccccc2)SC(=S)N1CCC(=O)N1CCCCC1CCO (centres undefined)	35.5 µM [falling, partial curve, poor fit]	
C=CCn1c(SC(C)C(=O)NCc2ccc3c(c2)OCO3)nc2scc(-c3ccccc3)c2c1=O (centres undefined)	35.5 µM [falling, single point]	
O=C(CSc1nnc(-c2ccccn2)n1-c1ccc(Cl)cc1)Nc1ccc2c(c1)OCO2	29.1 µM [rising, single point]	
N#CC1=C(N)Oc2cc(N)ccc2C1c1cccc(Br)c1 (centres undefined)	14.1 µM [rising, partial curve]	6.31 µM [falling, partial curve]
COc1ccc(CCNc2ncnc3c2oc2ccccc23)cc1OC	11.2 µM [falling, partial curve, poor fit]	
CC(NCc1cccn1C)c1ccccc1 (centres undefined)	3.16 µM [rising, single point]	
CN(C)C(=O)NC1c2ccccc2-c2ccccc21	1.12 µM [rising, full curve, poor fit]	
Cc1ccc2c(c1)C(=O)C(=O)N2CC(=O)Nc1ccccc1NC(=O)c1ccccn1	15.8 µM [rising, partial curve]	22.4 µM [falling, single point]

No new results follow: an excerpt of the list.
SMILES	AC50 [1]	AC50 [2]
Cc1ccc(C2N=C(N)Nc3nc(=O)c4ccccc4n32)cc1 (centres undefined)	15.8 µM [falling, partial curve, poor fit]	
CN1CCC(=O)N([C@H](CSc2ccccc2)c2ccccc2)CC1	35.5 µM [falling, partial curve, poor fit]	
CC(=O)c1c(C)nc(-c2ccc(Cl)cc2)nc1N	3.55 µM [rising, partial curve, poor fit]	
Cc1cc(NS(=O)(=O)c2ccc(NC(=O)COc3ccccc3C(C)(C)C)cc2)no1	1.58 µM [falling, full curve, poor fit]	
O=C(CSc1nnc(SCc2cccc3ccccc23)s1)N/N=C/C=C/c1ccccc1[N+](=O)[O-]	14.6 µM [falling, partial curve, poor fit]	
O=C(NCC(=O)N1CCN(c2ccc(C(F)(F)F)cn2)CC1)c1ccc(Br)o1	29.1 µM [falling, partial curve, poor fit]	
Nc1nnc(SCCN2C(=O)c3ccccc3S2(=O)=O)s1	11.6 µM [rising, partial curve, poor fit]	
O=C(N/N=C/C1C(c2ccccc2)C1(Cl)Cl)c1cccc(Br)c1 (centres undefined)	15.8 µM [falling, partial curve, poor fit]	
COCCNC(=O)c1cc2sccc2n1C	31.6 µM [rising, single point]	
O=C(/C=C/c1ccccc1Cl)NC1CCCCC1	4.47 µM [falling, full curve]	
COc1ccc(C(=O)Nc2ccc([N+](=O)[O-])cn2)c(OC)c1	0.366 µM [rising, full curve]	

Reference: PubChem BioAssay AID493014 (National Center for Advancing Translational Sciences (NCATS), 2011)
